Laboratory results reported in PMC1866352.
These are yes or no findings as the source states them, for the method shown. In cells and extracts the contact can be indirect. Some results given as binding are weak or reduced against the parent protein; the word gives no strength.

Protein sequences, listed by entry. Tags and fused reporters are not part of them.
UniProt P42859: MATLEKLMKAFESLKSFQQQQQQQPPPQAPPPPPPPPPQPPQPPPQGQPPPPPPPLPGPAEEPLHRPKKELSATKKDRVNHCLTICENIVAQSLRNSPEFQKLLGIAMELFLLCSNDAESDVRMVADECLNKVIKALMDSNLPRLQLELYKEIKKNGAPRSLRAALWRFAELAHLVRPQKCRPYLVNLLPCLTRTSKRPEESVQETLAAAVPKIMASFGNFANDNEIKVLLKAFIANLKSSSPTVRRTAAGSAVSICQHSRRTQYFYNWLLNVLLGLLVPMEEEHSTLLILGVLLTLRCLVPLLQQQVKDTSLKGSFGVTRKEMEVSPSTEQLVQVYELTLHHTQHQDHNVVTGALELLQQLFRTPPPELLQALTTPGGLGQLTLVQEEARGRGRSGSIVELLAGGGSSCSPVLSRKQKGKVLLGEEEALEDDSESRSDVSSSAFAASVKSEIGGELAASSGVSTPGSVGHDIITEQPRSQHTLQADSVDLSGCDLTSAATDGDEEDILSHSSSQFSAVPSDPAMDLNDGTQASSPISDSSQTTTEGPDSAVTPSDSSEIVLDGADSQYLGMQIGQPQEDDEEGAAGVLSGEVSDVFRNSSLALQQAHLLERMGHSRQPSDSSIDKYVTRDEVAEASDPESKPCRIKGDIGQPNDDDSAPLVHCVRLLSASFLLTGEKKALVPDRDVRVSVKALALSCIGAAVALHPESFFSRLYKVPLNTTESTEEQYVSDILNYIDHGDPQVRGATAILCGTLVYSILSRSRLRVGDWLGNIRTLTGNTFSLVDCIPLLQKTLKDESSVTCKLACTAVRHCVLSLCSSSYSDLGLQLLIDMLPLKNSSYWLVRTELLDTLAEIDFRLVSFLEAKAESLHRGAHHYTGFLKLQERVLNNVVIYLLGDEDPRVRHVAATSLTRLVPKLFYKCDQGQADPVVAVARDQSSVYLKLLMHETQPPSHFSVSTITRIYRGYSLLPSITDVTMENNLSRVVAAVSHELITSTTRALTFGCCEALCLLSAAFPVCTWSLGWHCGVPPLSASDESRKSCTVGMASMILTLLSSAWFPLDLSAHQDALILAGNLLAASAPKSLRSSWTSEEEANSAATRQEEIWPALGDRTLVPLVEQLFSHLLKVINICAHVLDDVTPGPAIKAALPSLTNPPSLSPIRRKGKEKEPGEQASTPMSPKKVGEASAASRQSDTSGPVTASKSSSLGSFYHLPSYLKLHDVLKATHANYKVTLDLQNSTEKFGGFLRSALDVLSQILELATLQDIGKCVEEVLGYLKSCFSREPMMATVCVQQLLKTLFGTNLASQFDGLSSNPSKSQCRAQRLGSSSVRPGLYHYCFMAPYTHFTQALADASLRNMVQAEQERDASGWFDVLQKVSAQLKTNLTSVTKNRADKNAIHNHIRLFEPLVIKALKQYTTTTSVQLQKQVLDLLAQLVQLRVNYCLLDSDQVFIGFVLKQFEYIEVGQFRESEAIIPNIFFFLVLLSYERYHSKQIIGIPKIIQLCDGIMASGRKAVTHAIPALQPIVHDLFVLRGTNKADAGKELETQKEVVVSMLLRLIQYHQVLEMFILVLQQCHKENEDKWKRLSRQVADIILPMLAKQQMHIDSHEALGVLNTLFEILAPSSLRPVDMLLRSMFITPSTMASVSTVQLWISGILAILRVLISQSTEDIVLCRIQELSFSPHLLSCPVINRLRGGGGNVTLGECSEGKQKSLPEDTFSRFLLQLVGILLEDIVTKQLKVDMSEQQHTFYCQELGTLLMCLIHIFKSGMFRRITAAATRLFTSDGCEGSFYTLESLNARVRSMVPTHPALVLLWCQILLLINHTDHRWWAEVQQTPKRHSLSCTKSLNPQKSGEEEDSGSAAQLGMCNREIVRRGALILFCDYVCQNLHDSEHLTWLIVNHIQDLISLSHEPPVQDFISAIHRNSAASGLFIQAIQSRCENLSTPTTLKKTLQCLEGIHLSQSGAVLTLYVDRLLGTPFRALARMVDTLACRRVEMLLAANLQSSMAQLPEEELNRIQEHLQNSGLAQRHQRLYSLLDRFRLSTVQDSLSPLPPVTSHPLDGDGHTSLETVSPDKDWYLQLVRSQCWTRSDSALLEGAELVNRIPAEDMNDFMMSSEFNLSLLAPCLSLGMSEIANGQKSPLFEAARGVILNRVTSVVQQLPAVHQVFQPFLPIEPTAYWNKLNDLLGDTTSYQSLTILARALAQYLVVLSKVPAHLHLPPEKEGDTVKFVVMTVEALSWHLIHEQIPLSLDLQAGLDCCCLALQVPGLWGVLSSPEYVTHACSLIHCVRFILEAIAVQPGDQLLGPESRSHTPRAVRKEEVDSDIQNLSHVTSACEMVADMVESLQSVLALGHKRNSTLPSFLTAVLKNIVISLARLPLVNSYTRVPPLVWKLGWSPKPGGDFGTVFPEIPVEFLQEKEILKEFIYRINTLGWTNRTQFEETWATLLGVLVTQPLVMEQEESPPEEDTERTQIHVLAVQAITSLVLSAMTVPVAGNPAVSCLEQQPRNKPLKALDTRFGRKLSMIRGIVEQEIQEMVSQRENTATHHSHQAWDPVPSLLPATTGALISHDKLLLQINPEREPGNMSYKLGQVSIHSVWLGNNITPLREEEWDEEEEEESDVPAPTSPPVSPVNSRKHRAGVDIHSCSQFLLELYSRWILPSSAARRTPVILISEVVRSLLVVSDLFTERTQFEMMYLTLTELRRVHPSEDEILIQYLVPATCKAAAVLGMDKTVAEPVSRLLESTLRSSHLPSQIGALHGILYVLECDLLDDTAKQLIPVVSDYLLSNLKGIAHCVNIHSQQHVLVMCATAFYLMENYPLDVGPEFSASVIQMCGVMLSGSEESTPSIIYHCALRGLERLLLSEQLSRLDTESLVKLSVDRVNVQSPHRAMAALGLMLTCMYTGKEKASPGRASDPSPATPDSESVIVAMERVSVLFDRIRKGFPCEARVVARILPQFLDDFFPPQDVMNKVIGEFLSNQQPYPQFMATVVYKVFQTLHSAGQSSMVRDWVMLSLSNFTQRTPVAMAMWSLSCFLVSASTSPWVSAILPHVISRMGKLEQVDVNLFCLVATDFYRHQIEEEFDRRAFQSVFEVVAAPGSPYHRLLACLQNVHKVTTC
UniProt P52480: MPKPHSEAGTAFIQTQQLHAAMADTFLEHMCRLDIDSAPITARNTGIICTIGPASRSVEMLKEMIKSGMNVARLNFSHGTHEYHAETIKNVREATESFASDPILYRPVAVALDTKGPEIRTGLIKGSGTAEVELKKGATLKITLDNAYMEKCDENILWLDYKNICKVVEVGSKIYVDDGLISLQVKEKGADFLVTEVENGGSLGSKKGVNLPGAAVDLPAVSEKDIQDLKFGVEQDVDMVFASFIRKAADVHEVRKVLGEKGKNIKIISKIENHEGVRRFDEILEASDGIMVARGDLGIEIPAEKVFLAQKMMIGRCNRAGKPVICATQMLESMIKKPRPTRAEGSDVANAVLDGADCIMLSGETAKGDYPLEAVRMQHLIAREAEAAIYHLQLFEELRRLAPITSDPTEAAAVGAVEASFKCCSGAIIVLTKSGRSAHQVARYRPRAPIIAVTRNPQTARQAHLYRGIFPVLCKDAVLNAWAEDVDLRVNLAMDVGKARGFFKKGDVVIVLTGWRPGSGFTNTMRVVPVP

Biological target: Htt (wild-type, from wild-type mouse brain) (mouse (endogenous in mouse brain)) (UniProt P42859)
Assay: co-IP; whole-brain lysates (500 ug, T-PER with protease inhibitors) of wild-type or YAC128 mice; monoclonal Htt antibody (Chemicon 2166) overnight at 4 °C, protein G; washed 5x with TBS/0.05% Tween; Western blots probed for the partners

## PKM2 (mouse brain) (from UniProt P52480 1-531)
  binding: binds
